Source: the supplement of paper PMC4604168 (melanoma cell lines)
The other results are listed elsewhere or left out. Single values are uncertain, as repeats are few or missing.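 Imaging used 1,536-well plates; nuclei positive for cleaved PARP by antibody were divided by total DNA-stained nuclei to yield the apoptosis fraction. Doses for screening kept most cells viable, and cell lines differ markedly in resting and induced cleaved-PARP levels.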

Columns and labels:
Assay in all cases: cleaved PARP positive nuclei fraction relative to DMSO control; melanoma cells; higher = more apoptosis
Settings in all cases: library dose: low library concentration; 72 h
501Mel = system: 501Mel
A101D = system: A101D
A2058 = system: A2058
C32 = system: C32
CBRC008 = system: CBRC008 (line from a melanoma biopsy)
CBRC014 = system: CBRC014 (line from a melanoma biopsy)
CBRC016 = system: CBRC016 (line from a melanoma biopsy)
CBRC017 = system: CBRC017 (line from a melanoma biopsy)
COLO792 = system: COLO792
COLO800 = system: COLO800
COLO829 = system: COLO829
G361 = system: G361
IPC-298 = system: IPC-298
IST-MEL1 = system: IST-MEL1
LB2518-MEL = system: LB2518-MEL
LOXIMVI = system: LOXIMVI

| SMILES | cleaved PARP positive nuclei fraction (501Mel) [%] | cleaved PARP positive nuclei fraction (A101D) [%] | cleaved PARP positive nuclei fraction (A2058) [%] | cleaved PARP positive nuclei fraction (C32) [%] | cleaved PARP positive nuclei fraction (CBRC008) [%] | cleaved PARP positive nuclei fraction (CBRC014) [%] | cleaved PARP positive nuclei fraction (CBRC016) [%] | cleaved PARP positive nuclei fraction (CBRC017) [%] | cleaved PARP positive nuclei fraction (COLO792) [%] | cleaved PARP positive nuclei fraction (COLO800) [%] | cleaved PARP positive nuclei fraction (COLO829) [%] | cleaved PARP positive nuclei fraction (G361) [%] | cleaved PARP positive nuclei fraction (IPC-298) [%] | cleaved PARP positive nuclei fraction (IST-MEL1) [%] | cleaved PARP positive nuclei fraction (LB2518-MEL) [%] | cleaved PARP positive nuclei fraction (LOXIMVI) [%] |
| --- | --- | --- | --- | --- | --- | --- | --- | --- | --- | --- | --- | --- | --- | --- | --- | --- |
| Nc1ccn([C@@H]2O[C@H](CO)[C@@H](O)C2(F)F)c(=O)n1 [gemcitabine] + CCN(CC)CCCCNc1ncc2cc(-c3cc(OC)cc(OC)c3)c(NC(=O)NC(C)(C)C)nc2n1 [PD173074] (first compound 0.0004 µM, partner dose 0.1 µM) | 30.7 | 25.4 | 62.7 | 79.9 | 253 | 148 | 69.7 | 190 | 99.7 | 172 | 90.3 | 47.1 | 306 | 171 | 75 | 135 |
| Cn1c(=O)n(-c2ccc(C(C)(C)C#N)cc2)c2c3cc(-c4cnc5ccccc5c4)ccc3ncc21 + O=c1cc(-c2cccc3c2Sc2ccccc2S3)oc(N2CCOCC2)c1 [KU55933] (first compound 0.004 µM, partner dose 1 µM) | 70.3 | 53.3 | 53.1 | 113 | 47.2 | 97.5 | 32.4 | 87.4 | 113 | 36.5 | 342 | 112 | 277 | 62.7 | 36.9 | 165 |
| CNC(=O)c1cc(Oc2ccc(NC(=O)Nc3ccc(Cl)c(C(F)(F)F)c3)cc2)ccn1 [sorafenib] + COC(=O)c1sccc1S(=O)(=O)Nc1ccc(Nc2ccccc2)cc1OC [GSK0660] (first compound 0.4 µM, partner dose 1 µM) | 166 | 40.2 | 74.8 | 40.5 | 112 | 120 | 92.8 | 123 | 74.7 | 259 | 191 | 134 | 195 | 23.2 | 128 | 73.9 |
| C=C(c1ccc(C(=O)O)cc1)c1cc2c(cc1C)C(C)(C)CCC2(C)C [Bexarotene] + COc1cc2ncnc(Nc3ccc(Oc4ccccc4)cc3)c2cc1OC [SrcI1] (first compound 2 µM, partner dose 2 µM) | 208 | 7.4 | 268 | 38.2 | 225 | 85.2 | 219 | 115 | 75 | 17.8 | 182 | 168 | 155 | 123 | 80.9 | 54.1 |
| Nc1ccn([C@@H]2O[C@H](CO)[C@@H](O)C2(F)F)c(=O)n1 [gemcitabine] + O=S(=O)(c1ccccc1)N(CC(F)(F)F)c1ccc(C(O)(C(F)(F)F)C(F)(F)F)cc1 [T0901317] (first compound 0.0004 µM, partner dose 1.4 µM) | 81.6 | 58.2 | 21.4 | 271 | 188 | 130 | 93.8 | 124 | 41.8 | 74 | 145 | 263 | 150 | 150 | 74.4 | 156 |
| CS(=O)(=O)CCNCc1ccc(-c2ccc3ncnc(Nc4ccc(OCc5cccc(F)c5)c(Cl)c4)c3c2)o1 [lapatinib] + O=S(=O)(c1ccccc1)N(CC(F)(F)F)c1ccc(C(O)(C(F)(F)F)C(F)(F)F)cc1 [T0901317] (first compound 0.8 µM, partner dose 1.4 µM) | 207 | 45.4 | 23.3 | 33.8 | 64 | 114 | 35.9 | 98.9 | 100 | 145 | 86.7 | 57.8 | 99.8 | 116 | 138 | 57.2 |
| Nc1nc(F)nc2c1ncn2[C@@H]1O[C@H](CO)[C@@H](O)[C@@H]1O [fludarabine] + CCCCCCCCCCCC1=C(O)C(=O)C=C(O)C1=O [Embelin] (first compound 0.2 µM, partner dose 1.2 µM) | 1730 | 18.2 | 88.2 | 174 | 108 | 100 | 113 | 86 | 221 | 120 | 93.1 | 86 | 78.1 | 123 | 35.6 | 33.5 |
| O=C(O)c1ccc2c(c1)nc(Nc1cccc(Cl)c1)c1ccncc12 + Oc1cc(-c2nc(-c3ccccc3)[nH]c2-c2ccncc2)ccc1Cl [L779450] (first compound 0.4 µM, partner dose 0.2 µM) | 86.9 | 31.5 | 102 | 33.8 | 129 | 153 | 142 | 377 | 192 | 112 | 72.9 | 177 | 113 | 92.2 | 185 | 134 |
| CNC(=O)c1cc(Oc2ccc(NC(=O)Nc3ccc(Cl)c(C(F)(F)F)c3)cc2)ccn1 [sorafenib] + Oc1cc(-c2nc(-c3ccccc3)[nH]c2-c2ccncc2)ccc1Cl [L779450] (first compound 0.4 µM, partner dose 0.2 µM) | 106 | 20.7 | 40.1 | 69.4 | 315 | 113 | 26.9 | 119 | 156 | 68.5 | 66.6 | 154 | 98.2 | 116 | 65.9 | 76.1 |
| CN1CCN(c2ccc3nc(-c4c(N)c5c(F)cccc5[nH]c4=O)[nH]c3c2)CC1 [Dovitinib] + CCN(CC)CCCCNc1ncc2cc(-c3cc(OC)cc(OC)c3)c(NC(=O)NC(C)(C)C)nc2n1 [PD173074] (first compound 0.1 µM, partner dose 0.1 µM) | 90 | 9.47 | 55.1 | 164 | 118 | 96.3 | 115 | 81 | 61.3 | 108 | 94.3 | 55.4 | 65 | 95.6 | 47.2 | 124 |
| CO[C@H]1C[C@@H]2CC[C@@H](C)[C@@](O)(O2)C(=O)C(=O)N2CCCC[C@H]2C(=O)O[C@H]([C@H](C)C[C@@H]2CC[C@@H](OCCO)[C@H](OC)C2)CC(=O)[C@H](C)/C=C(\C)[C@@H](O)[C@@H](OC)C(=O)[C@H](C)C[C@H](C)/C=C/C=C/C=C/1C [everolimus] + COc1ccc2c(c1)CCC1C2CCC2(C)C(NCCCCCCN3C(=O)C=CC3=O)CCC12 [U73122] (first compound 0.02 µM, partner dose 0.4 µM) | 109 | 37.1 | 89.3 | 150 | 291 | 112 | 220 | 147 | 139 | 126 | 201 | 127 | 133 | 97.1 | 96.1 | 237 |
| O=C(O)[C@@H]1[O][Sb](=[O])([O][Sb]2(=[O])[O][C@H]([C@H](O)CO)[C@H](O)[C@H](C(=O)O)[O]2)[O][C@H]([C@H](O)CO)[C@@H]1O (stereo not given in full) [stibogluconate] + COc1ccc(COc2ccc(Cc3cnc(N)nc3N)cc2OC)cc1 [GW2580] (first compound 2 µM, partner dose 1 µM) | 60.9 | 27.4 | 94.8 | 112 | 30.2 | 72 | 48.2 | 146 | 82.1 | 32.3 | 89.1 | 99.4 | 39.2 | 135 | 63.4 | 106 |
| Nc1nc(F)nc2c1ncn2[C@@H]1O[C@H](CO)[C@@H](O)[C@@H]1O [fludarabine] + Cc1cc([N+](=O)[O-])ccc1NS(=O)(=O)c1cc(Cl)ccc1Cl [FH535] (first compound 0.2 µM, partner dose 1 µM) | 1750 | 17.6 | 59.8 | 92.5 | 542 | 135 | 1170 | 247 | 39.3 | 135 | 136 | 132 | 72.2 | 134 | 89.7 | 97.8 |
| Cc1cc(Nc2cc(N3CCN(C)CC3)nc(/C=C/c3ccccc3)n2)n[nH]1 + COc1ccc2c(c1)CCC1C2CCC2(C)C(NCCCCCCN3C(=O)C=CC3=O)CCC12 [U73122] (first compound 0.04 µM, partner dose 0.4 µM) | 224 | 47.3 | 36.8 | 81.8 | 140 | 102 | 91.3 | 79.2 | 58 | 157 | 125 | 149 | 46 | 89.6 | 93.1 | 106 |
| CO[C@H]1C[C@@H]2CC[C@@H](C)[C@@](O)(O2)C(=O)C(=O)N2CCCC[C@H]2C(=O)O[C@H]([C@H](C)C[C@@H]2CC[C@@H](OCCO)[C@H](OC)C2)CC(=O)[C@H](C)/C=C(\C)[C@@H](O)[C@@H](OC)C(=O)[C@H](C)C[C@H](C)/C=C/C=C/C=C/1C [everolimus] + CCN(CC)CCCCNc1ncc2cc(-c3cc(OC)cc(OC)c3)c(NC(=O)NC(C)(C)C)nc2n1 [PD173074] (first compound 0.02 µM, partner dose 0.1 µM) | 111 | 1060 | 153 | 91.1 | 179 | 91.8 | 47.4 | 111 | 158 | 88.7 | 138 | 137 | 179 | 125 | 78.1 | 182 |
